Results taken from publication PMC6973269 (Chembiochem, 2019).

Assay: general procedure: Fmoc solid-phase peptide synthesis; Rink Amide (MBHA) resin, Rink Amide NovaSyn TGR resin or ChemMatrix Rink Amide resin; HCTU/DIEA; COMU/Oxyma/DIEA for building blocks
Conditions: whole synthesis; for final HPLC purity: UV 210 nm; for isolated yield: on vendor loading

Row | Substance | final HPLC purity | isolated yield
1 | Lau – G A G A S R E E S H K | 98% | 8%
2 | Lau – G A G A S S E E K S K | 99% | 9%
3 | Lau – G A G A S A R E K S K | 98% | 7%
4 | Ac – G A G A S S5 E E K S5 K | 98% | 12%
5 | Myr – G A G A S R E E S H K | 98% | 9%
6 | Myr – G A G A S A E E K H K | 98% | 10%
7 | Myr – G A R A S S E E K H K | 99% | 8%
8 | Myr – G R G A S A E E K H K | 99% | 11%
9 | Myr – G A G A S S5 E E K S5 K | 99% | 14%
10 | Myr – G A G A S A R E K S K | 97% | 8%
